Laboratory results taken from article PMC6155157.
These are yes or no findings as the source states them, for the method shown. Binding seen in cells or lysates may run through a third protein. Some entries that bind do so weakly or less than the wild type.

The chains behind the UniProt entries cited, without tags or fusion partners.
UniProt Q96EB6: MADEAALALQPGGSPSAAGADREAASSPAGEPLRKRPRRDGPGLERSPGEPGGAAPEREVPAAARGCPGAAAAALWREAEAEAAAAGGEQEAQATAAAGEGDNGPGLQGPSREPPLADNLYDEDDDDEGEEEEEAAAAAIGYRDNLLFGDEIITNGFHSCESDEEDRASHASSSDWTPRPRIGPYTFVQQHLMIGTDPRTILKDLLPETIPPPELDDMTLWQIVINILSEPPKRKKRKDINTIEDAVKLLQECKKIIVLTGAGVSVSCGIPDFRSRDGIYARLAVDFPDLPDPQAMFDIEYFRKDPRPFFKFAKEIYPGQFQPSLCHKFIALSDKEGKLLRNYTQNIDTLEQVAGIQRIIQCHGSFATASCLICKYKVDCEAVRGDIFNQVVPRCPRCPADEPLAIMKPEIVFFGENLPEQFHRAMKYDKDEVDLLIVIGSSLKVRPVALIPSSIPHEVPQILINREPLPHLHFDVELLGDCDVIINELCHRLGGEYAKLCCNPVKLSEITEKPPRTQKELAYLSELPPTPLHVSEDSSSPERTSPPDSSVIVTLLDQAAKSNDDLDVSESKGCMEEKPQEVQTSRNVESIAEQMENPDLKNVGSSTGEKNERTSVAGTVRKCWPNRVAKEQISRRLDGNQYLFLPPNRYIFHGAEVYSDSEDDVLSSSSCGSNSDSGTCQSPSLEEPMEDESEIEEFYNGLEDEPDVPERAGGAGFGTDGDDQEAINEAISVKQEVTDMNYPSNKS
UniProt P05412: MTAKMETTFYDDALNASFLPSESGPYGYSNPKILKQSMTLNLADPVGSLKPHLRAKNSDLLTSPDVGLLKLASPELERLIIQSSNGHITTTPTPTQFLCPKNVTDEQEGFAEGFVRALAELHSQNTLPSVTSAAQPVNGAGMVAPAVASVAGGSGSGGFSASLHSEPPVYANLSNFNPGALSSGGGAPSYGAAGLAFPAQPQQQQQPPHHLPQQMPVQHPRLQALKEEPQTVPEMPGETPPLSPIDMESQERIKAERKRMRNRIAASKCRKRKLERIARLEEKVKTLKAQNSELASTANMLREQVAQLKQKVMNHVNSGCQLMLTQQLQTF

Target: Sirtuin 1 (SIRT1) (human (endogenous in AGS)) (UniProt Q96EB6)
Assay: co-IP; AGS cells lysed with NP40 lysis buffer; endogenous proteins precipitated with anti-c-JUN or anti-SIRT1 antibody (IgG as control) and protein G PLUS-Agarose beads; western blot for the other protein

transcription factor c-JUN (from UniProt P05412 1-331)
binding: binds
